# The supplement of paper PMC12067093, “Discovery and optimisation of a covalent ligand for TRIM25 and its application to targeted protein ubiquitination” (Chemical Science, 2025)
# The chains behind the UniProt entries cited, without tags or fusion partners. Where a name states a change or a piece, a line headed by the entry shows the natural chain unless it says otherwise.
# UniProt Q13485: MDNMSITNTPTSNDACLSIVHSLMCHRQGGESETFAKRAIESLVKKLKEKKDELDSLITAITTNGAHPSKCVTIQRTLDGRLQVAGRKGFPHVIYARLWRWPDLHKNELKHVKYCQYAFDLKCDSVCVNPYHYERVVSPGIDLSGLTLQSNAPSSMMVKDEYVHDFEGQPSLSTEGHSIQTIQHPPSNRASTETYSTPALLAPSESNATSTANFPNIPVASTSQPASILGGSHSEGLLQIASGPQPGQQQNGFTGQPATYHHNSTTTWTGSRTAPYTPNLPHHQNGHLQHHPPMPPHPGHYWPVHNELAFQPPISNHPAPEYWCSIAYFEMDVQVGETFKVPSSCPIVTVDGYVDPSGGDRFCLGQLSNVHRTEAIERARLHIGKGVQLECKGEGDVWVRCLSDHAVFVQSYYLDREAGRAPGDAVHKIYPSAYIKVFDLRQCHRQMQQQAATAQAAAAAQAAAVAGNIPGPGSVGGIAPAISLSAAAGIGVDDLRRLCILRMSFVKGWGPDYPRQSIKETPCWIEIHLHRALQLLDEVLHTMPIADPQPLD
# UniProt A6NHR9: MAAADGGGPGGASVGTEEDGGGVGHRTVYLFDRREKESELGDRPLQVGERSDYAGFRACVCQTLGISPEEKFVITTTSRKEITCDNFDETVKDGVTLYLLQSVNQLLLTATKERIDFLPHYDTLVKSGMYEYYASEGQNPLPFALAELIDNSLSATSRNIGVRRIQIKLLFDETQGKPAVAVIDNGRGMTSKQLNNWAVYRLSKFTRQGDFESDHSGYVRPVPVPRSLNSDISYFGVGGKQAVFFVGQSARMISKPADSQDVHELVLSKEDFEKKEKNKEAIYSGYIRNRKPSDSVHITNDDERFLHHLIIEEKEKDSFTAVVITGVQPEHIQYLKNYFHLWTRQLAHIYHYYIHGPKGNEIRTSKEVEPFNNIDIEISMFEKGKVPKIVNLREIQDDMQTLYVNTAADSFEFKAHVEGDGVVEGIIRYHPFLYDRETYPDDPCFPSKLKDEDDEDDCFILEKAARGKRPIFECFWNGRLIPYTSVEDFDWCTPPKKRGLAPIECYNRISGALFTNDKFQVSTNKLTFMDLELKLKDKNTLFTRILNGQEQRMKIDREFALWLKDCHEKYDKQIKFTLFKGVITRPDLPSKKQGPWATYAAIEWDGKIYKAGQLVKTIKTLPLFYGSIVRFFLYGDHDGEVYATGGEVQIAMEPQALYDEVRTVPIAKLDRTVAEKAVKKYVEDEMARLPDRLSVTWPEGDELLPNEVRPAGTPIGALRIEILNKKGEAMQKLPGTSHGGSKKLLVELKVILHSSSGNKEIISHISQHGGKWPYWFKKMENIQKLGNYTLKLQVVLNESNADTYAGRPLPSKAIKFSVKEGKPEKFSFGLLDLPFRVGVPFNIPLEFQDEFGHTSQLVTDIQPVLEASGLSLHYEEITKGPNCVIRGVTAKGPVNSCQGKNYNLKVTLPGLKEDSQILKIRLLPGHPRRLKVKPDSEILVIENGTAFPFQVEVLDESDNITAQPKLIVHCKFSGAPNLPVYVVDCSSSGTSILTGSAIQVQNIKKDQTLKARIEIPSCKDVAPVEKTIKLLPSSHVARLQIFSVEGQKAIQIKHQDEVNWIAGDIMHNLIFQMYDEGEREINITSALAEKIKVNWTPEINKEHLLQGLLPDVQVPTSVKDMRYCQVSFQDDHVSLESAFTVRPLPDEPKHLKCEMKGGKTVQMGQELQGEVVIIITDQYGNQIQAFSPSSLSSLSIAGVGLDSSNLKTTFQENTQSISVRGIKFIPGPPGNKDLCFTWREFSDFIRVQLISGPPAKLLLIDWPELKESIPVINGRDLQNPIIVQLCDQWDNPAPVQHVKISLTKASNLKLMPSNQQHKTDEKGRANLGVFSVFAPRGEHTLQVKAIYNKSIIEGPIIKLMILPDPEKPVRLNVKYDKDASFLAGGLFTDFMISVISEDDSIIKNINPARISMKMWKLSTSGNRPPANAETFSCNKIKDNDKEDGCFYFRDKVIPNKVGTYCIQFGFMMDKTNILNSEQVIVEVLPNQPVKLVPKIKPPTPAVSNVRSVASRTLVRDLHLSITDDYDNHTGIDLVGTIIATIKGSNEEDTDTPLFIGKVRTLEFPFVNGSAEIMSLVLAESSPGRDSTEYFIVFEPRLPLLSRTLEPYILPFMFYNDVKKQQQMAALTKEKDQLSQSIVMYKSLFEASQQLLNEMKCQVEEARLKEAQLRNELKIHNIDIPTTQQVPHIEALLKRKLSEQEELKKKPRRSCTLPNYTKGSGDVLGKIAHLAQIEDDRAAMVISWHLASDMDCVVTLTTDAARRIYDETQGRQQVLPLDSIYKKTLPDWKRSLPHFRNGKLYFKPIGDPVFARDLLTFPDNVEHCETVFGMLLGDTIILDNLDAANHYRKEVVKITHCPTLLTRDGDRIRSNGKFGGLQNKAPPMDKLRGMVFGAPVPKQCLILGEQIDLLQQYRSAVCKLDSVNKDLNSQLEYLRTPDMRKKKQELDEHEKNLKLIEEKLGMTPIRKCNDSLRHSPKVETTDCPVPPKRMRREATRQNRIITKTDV
# UniProt Q9H4L7: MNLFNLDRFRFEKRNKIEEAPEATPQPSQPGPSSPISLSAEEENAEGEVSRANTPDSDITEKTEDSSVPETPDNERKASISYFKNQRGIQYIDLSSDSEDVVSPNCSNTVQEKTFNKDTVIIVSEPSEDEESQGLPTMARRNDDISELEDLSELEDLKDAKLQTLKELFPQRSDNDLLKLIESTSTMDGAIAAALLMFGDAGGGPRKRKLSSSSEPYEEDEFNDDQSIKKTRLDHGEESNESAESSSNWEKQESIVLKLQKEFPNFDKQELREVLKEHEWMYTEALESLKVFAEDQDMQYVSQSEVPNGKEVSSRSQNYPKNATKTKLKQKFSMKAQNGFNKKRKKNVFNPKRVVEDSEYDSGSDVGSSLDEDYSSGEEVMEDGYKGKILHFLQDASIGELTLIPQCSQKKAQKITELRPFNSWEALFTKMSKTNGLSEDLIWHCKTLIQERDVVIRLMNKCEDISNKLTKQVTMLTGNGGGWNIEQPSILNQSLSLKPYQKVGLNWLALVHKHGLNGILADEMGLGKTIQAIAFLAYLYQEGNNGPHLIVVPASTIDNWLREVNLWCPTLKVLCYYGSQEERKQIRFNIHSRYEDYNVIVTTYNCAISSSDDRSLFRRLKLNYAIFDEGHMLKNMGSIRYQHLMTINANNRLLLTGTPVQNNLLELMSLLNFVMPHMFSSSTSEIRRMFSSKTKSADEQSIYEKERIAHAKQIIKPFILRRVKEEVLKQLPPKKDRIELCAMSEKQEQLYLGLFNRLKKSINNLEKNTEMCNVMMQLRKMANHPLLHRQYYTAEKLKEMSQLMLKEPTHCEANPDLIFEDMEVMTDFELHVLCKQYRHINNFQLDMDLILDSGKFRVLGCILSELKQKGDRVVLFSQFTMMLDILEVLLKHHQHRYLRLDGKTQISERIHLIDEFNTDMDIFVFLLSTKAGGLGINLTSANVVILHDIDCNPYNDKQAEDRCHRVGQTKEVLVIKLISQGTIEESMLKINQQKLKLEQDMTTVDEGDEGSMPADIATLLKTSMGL
# UniProt Q14683: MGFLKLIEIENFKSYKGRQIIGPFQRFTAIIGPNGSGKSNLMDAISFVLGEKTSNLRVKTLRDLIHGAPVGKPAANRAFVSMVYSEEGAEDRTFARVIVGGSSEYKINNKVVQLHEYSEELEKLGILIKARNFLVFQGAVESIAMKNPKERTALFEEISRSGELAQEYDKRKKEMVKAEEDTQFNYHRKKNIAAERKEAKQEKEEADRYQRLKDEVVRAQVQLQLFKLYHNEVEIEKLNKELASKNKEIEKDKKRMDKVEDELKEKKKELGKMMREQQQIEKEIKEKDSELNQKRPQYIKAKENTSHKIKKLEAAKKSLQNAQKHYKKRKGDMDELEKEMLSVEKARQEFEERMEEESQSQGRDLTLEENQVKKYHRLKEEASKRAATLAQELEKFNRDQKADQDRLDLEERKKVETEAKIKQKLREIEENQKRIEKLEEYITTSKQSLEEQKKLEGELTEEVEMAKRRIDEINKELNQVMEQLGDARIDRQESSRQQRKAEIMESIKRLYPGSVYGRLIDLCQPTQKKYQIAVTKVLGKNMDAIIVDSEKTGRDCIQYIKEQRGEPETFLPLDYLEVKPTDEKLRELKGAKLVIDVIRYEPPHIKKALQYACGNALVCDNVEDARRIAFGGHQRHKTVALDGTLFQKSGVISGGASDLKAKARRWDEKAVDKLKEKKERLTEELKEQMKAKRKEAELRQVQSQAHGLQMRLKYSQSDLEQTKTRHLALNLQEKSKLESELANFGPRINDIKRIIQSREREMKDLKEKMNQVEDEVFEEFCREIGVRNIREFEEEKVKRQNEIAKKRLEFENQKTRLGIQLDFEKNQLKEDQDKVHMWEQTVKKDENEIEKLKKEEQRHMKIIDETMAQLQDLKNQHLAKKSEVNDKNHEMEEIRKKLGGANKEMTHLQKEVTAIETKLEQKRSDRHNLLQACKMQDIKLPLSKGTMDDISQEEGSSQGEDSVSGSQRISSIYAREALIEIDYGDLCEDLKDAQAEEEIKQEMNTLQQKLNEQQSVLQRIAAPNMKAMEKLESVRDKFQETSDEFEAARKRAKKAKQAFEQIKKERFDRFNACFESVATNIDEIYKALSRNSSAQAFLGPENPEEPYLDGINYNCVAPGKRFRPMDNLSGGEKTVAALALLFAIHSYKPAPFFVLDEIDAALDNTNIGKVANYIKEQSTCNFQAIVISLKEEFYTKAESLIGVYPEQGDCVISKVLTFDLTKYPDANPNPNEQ
# UniProt Q9C0K1: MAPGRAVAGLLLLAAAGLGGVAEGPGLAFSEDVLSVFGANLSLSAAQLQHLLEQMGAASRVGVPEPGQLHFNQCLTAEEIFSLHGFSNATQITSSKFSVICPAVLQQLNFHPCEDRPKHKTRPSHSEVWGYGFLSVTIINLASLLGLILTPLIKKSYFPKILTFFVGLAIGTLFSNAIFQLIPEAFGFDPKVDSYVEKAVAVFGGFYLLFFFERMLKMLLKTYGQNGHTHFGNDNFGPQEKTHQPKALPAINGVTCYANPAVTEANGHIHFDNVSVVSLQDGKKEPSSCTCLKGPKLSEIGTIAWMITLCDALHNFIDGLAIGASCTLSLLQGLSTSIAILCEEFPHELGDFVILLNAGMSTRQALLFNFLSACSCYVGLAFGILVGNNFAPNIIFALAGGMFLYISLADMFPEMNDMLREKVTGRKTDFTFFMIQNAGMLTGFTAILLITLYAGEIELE
# UniProt Q8WU79: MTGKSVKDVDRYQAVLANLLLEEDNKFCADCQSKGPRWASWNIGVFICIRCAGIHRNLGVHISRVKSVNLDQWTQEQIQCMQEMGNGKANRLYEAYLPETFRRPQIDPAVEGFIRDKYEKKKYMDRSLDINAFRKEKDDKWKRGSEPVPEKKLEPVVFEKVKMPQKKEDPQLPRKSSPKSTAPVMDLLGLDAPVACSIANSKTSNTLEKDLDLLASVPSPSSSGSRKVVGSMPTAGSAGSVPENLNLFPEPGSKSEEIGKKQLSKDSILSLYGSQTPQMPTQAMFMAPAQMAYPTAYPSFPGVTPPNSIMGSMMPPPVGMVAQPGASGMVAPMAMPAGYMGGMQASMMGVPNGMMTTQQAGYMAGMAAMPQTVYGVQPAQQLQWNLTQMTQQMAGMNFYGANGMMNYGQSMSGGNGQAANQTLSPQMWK
# UniProt Q9BWU0: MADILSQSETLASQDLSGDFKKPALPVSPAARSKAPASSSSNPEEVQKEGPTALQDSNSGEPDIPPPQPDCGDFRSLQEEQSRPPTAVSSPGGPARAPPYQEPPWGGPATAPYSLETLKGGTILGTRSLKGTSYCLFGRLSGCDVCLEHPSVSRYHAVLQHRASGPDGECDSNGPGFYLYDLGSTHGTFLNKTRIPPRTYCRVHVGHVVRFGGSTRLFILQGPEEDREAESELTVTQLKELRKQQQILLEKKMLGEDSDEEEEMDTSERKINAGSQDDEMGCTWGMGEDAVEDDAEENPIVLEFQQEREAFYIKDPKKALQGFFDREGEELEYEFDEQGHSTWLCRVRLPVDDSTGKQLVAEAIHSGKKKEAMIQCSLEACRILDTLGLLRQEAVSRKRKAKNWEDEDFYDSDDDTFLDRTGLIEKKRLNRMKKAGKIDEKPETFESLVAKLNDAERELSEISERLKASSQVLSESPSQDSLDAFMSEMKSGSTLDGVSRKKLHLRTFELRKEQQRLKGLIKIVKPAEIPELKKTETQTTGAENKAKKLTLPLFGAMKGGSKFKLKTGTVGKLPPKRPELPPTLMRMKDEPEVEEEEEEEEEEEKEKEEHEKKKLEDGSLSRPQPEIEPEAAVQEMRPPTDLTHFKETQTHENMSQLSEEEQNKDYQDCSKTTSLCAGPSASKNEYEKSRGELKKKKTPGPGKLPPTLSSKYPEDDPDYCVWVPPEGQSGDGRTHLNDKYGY
# Some of the results follow.
# Compound: CC1Cc2ccccc2N1C(=O)C1CCCN(C1)C(=O)CCl (mixture of isomers) [TRIM25 ligand 11 (diastereomer mixture)]
# Experiment: probe-labelled cysteine peptide fold change vs DMSO (competition) (log2 fold change); higher = less target engagement (more negative = stronger competition)
# Conditions: 10 µM; THP-1; incubation time: 4 h
# 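Also: competitive chemoproteomic profiling in live THP-1 cells with an iodoacetamide desthiobiotin (IA-DTB) probe, comparing probe-labelled peptide intensities in compound-treated cells against DMSO-treated controls.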
row,Target,probe-labelled cysteine peptide fold change
1,SMURF2_Q9HAU4_393_QELSQQQPQAGHCR (UniProt Q9HAU4),-0.228
2,SMARCC1_Q92922_164_TLVQNNCLTRPNIYLIPDIDLK (UniProt Q92922),-0.0295
3,SNRNP200_O75643_1506_DVAHWLGCSATSTFNFHPNVR (UniProt O75643),0.129
4,SLC44A1_Q8WWI5_117_SVALCVAACPR (UniProt Q8WWI5),-0.0403
5,SNRNP200_O75643_1278_VVSDRWLSCETQLPVSFR (UniProt O75643),-0.302
6,SNRNP200_O75643_576_LATYGITVAELTGDHQLCK (UniProt O75643),0.114
7,SLC5A6_Q9Y289_577_LLSLLPLSCQK (UniProt Q9Y289),0.0138
8,SMAD4_Q13485_391_GVQLECK (UniProt Q13485),0.0468
9,SMCHD1_A6NHR9_444_ETYPDDPCFPSK (UniProt A6NHR9),0.0831
10,SMN2_Q16637_98_CSAIWSEDGCIYPATIASIDFKR (UniProt Q16637),-0.43
11,SMU1_Q2TAY7_448_EGGDFVCCALSPR (UniProt Q2TAY7),0.0825
12,SNRNP200_O75643_1471_KNVQNINLFVVDEVHLIGGENGPVLEVICSR (UniProt O75643),0.0797
13,SMARCAD1_Q9H4L7_772_NTEMCNVMMQLR (UniProt Q9H4L7),0.0876
14,SMG7_Q92540_537_NLSNNCDTGEK (UniProt Q92540),0.347
15,SMAD4_Q13485_523_ETPCWIEIHLHR (UniProt Q13485),-0.0594
16,SNRNP200_O75643_2011_FCNRYPNIELSYEVVDK (UniProt O75643),-0.0643
17,SMU1_Q2TAY7_219_SHVECAR (UniProt Q2TAY7),0.194
18,SMC1A_Q14683_619_ALQYACGNALVCDNVEDAR (UniProt Q14683),0.499

row,Target,probe-labelled cysteine peptide fold change
1,SLC39A8_Q9C0K1_101_FSVICPAVLQQLNFHPCEDRPK (UniProt Q9C0K1),-0.108
2,SLMAP_Q14BN4_120_KVTHGCIVSTIK (UniProt Q14BN4),-0.0304
3,SMG1_Q96Q15_1715_QLISSCPWLSELDESATEGVIK (UniProt Q96Q15),-0.174
4,SMARCAD1_Q9H4L7_407_ILHFLQDASIGELTLIPQCSQK (UniProt Q9H4L7),0.0673
5,SMYD3_Q9H7B4_261+263_DQYCFECDCFR (UniProt Q9H7B4),0.0499
6,SMAP2_Q8WU79_196_STAPVMDLLGLDAPVACSIANSK (UniProt Q8WU79),-0.199
7,SMC4_Q9NTJ3_260_GQTEHDEGMLEYLEDIIGCGR (UniProt Q9NTJ3),0.0113
8,SNRNP200_O75643_1278_WLSCETQLPVSFR (UniProt O75643),0.233
9,SLC4A1AP_Q9BWU0_399_EGEELEYEFDEQGHSTWLCR (UniProt Q9BWU0),-0.0527
10,SMNDC1_O75940_214_VGVGTCGIADKPMTQYQDTSK (UniProt O75940),-0.108
11,SMG5_Q9UPR3_109_STLECAYR (UniProt Q9UPR3),0.24
12,SMC1A_Q14683_1210_AESLIGVYPEQGDCVISK (UniProt Q14683),-0.0856
13,SMS_P52788_256_TCGDVLDNLKGDCYQVLIEDCIPVLKR (UniProt P52788),-0.302
14,SMC5_Q8IY18_393_TTENCENLQPQIDAITNDLRR (UniProt Q8IY18),-0.0378
15,SMYD4_Q8IYR2_501_HMLQLQCNAQAMTTIQHTGPK (UniProt Q8IYR2),-0.0139
16,SLC39A10_Q9ULF5_598_NYLCIEEEK (UniProt Q9ULF5),-0.116
17,SMCHD1_A6NHR9_1445_IKDNDKEDGCFYFR (UniProt A6NHR9),-0.209

# Single values from the entries so far.
# Under probe-labelled cysteine peptide fold change, SLC4A1AP_Q9BWU0_399_EGEELEYEFDEQGHSTWLCR (UniProt Q9BWU0) is entered as -0.0527
# Under probe-labelled cysteine peptide fold change, SMAP2_Q8WU79_196_STAPVMDLLGLDAPVACSIANSK (UniProt Q8WU79) is entered as -0.199
